PubChem BioAssay AID602196, INSERM | 2012
In all, the deposit lists about 23,000 reagents; below is a random part of them. Over the whole deposit, 455 (2%) got an active call. 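Active includes both protection and sensitisation; some change values fall well beyond the stated -50 to +50 range.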 A number with no mark means an inactive call. Further read-outs or replicates are left out here. Not stated in the record: the amount of reagent.

- Aim: 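Genes whose knock-down alters cisplatin killing of lung cancer cells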
- Cells: human A549 lung cancer cells
- Reagent: siRNA pair against human genes
- Timing: 48 h transfection before cisplatin; time from cisplatin to read-out not stated
- Treatment: cisplatin at a dose killing half of control-siRNA cells; exact dose and duration not given
- Detection: 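Shift in cisplatin death relative to control siRNA, from -50 (all cells die) to +50 (no cells die); siRNAs harmful on their own scored 0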
- Direction: two-siRNA summed score (-2 to +2): higher = both siRNAs protect from cisplatin killing; -2 means both sensitise; mean protection from cisplatin (shift in death) and protection from cisplatin (shift in death), siRNA C: higher = protection from cisplatin killing
- Hit rule: 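siRNAs harmful alone (LDH or WST-1) get 0; others get +1 for less and -1 for more cisplatin killing; genes are active when the two siRNAs give the same sign, summing to ±2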
- Meaning of the calls: active = both siRNAs shift cisplatin killing the same way; inactive = no consistent shift, or siRNA harmful alone

gene,two-siRNA summed score (-2 to +2),mean protection from cisplatin (shift in death) (%),"protection from cisplatin (shift in death), siRNA C (%)"
CCDC144NL-AS1,1,13.7,5.6
LOC442198,2 (active),16.5,22.2
CUL1,1,-9.2,17.7
GGT5,-1,-5.5,-13.2
HEMK1,-1,-30.4,-50.8
MGC75495,1,14.4,-0.6
LOC400512,0,0.8,6.7
GJB5,0,-3.1,-5.5
OSBP2,1,10.1,24
TRUB2,0,1.6,-2
LOC392217,1,16.3,28.4
LOC441016,0,20.6,6.8
NUP58,0,3.4,2.1
NR3C1,0,2.9,0.6
ATOX1,2 (active),14.4,17.9
ACBD3,0,2,-6.7
TXNDC8,0,-0.6,1.3
ZNF582,0,-0.2,1.2
GPSM1,0,-6.3,-2.7
FLJ34222,-1,1.8,20.5
RNF115,0,-4.9,-8.3
LOC441604,1,7.8,1.1
RASD2,-1,-11.2,-11

Look-ups from the list.
MGC75495, protection from cisplatin (shift in death), siRNA C (%) → -0.6
TXNDC8, protection from cisplatin (shift in death), siRNA C (%) → 1.3
OSBP2, mean protection from cisplatin (shift in death) (%) = 10.1
